Paper PMC7862700
Only a part is listed here, and it is no random draw. At the low end of the ranking the order means little.

Amino acid sequences for entries named in this document (tags omitted). A change or cut given only in a name is not applied to a line headed by its entry.
UniProt O43186: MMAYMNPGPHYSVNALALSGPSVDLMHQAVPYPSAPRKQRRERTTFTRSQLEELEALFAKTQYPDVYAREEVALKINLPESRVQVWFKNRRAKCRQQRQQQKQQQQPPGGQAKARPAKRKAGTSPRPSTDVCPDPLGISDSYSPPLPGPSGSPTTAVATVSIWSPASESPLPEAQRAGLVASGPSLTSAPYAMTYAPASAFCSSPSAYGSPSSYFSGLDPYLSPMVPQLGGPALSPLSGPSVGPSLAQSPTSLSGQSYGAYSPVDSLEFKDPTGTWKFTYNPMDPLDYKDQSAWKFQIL

Each sequence was assayed against T1, FEV (UniProt Q99581) (assay: DAPPL (digital affinity profiling via proximity ligation, sequencing)). Conditions: 10 mM Tris-HCl pH 7.5, 50 mM NaCl, 1 mM DTT, 4% glycerol, room temperature, 30 min; GST-TFs on glutathione beads, 16-mer random dsDNA library, 0.1% …; high values mean tight binding; double strand, one strand shown; scale: fold enrichment (6-mer frequency, TF over GST control).
T1 sequence: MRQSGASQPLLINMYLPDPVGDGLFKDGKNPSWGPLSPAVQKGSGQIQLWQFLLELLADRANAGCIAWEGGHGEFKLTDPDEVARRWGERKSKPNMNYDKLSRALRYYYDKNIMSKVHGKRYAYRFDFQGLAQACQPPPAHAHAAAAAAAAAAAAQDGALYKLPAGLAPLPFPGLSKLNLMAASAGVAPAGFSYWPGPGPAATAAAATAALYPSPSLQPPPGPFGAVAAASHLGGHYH

Which binding signal does the source give for ATCAAG here?
Its binding signal is 0.926.

Which binding signal does the source give for CTTCTT here?
Its binding signal is 1.48.

With TGCAGA as the sequence, how does the binding signal read?
Its binding signal is 0.953.

AGAGAA was tested. Which binding signal did it give?
Its binding signal is 0.775.

Which binding signal does the source give for CGAAGT here?
The binding signal was 0.852.

With ATCTCA as the sequence, how does the binding signal read?
The binding signal was 1.16.

With ACGAAG as the sequence, how does the binding signal read?
Its binding signal is 0.934.

How did the binding signal turn out when CTGGGG was run?
The binding signal was 0.833.

GCCAAC was tested. Which binding signal did it give?
Its binding signal is 0.946.

GACCGA was tested. Which binding signal did it give?
The binding signal was 0.858.

For CCGTTC, which binding signal is on record?
The binding signal was 1.48.

How did the binding signal turn out when GTGTAC was run?
Its binding signal is 0.951.

For GATCGA, which binding signal is on record?
Its binding signal is 0.805.

With AGGTGT as the sequence, how does the binding signal read?
Its binding signal is 0.812.

With CTAGGG as the sequence, how does the binding signal read?
The binding signal was 0.876.

For TGGCAT, which binding signal is on record?
The binding signal was 1.3.

CGCACC was tested. Which binding signal did it give?
The binding signal was 0.951.

CTGAGG was tested. Which binding signal did it give?
The binding signal was 0.74.

Which binding signal does the source give for AGGCAC here?
The binding signal was 0.884.

CCAAGC was tested. Which binding signal did it give?
Its binding signal is 0.978.

How did the binding signal turn out when CGTCAT was run?
The binding signal was 0.905.

How did the binding signal turn out when ACGGTT was run?
The binding signal was 0.975.

With GGTGGT as the sequence, how does the binding signal read?
The binding signal was 0.938.

TGGAAC was tested. Which binding signal did it give?
Its binding signal is 1.02.

Which binding signal does the source give for CTGGGC here?
Its binding signal is 0.964.

How did the binding signal turn out when GAATGC was run?
Its binding signal is 0.899.

AAACTG was tested. Which binding signal did it give?
The binding signal was 1.06.

CAGCAC was tested. Which binding signal did it give?
Its binding signal is 0.953.

For GTGCCG, which binding signal is on record?
Its binding signal is 0.979.

How did the binding signal turn out when CGATGC was run?
The binding signal was 1.07.

GCTTAA was tested. Which binding signal did it give?
The binding signal was 0.947.

Which binding signal does the source give for AGATGT here?
The binding signal was 0.852.

Which binding signal does the source give for GATGGG here?
Its binding signal is 0.895.

For CGCAAA, which binding signal is on record?
Its binding signal is 0.972.

GCATAC was tested. Which binding signal did it give?
The binding signal was 0.977.

With TGAACG as the sequence, how does the binding signal read?
Its binding signal is 0.896.

GCGATC was tested. Which binding signal did it give?
Its binding signal is 0.944.

With ACCGGT as the sequence, how does the binding signal read?
The binding signal was 0.839.

GTGTTA was tested. Which binding signal did it give?
The binding signal was 0.96.

How did the binding signal turn out when CATGCG was run?
The binding signal was 0.968.

What follows are sequences tested against CRX (UniProt O43186) in the same assay as above. Conditions: 10 mM Tris-HCl pH 7.5, 50 mM NaCl, 1 mM DTT, 4% glycerol, room temperature, 30 min; GST-TFs on glutathione beads, 16-mer random dsDNA library, 0.1% …; high values mean tight binding; double strand, one strand shown; scale: fold enrichment (6-mer frequency, TF over GST control).

ATCAAG was tested. Which binding signal did it give?
Its binding signal is 1.19.

For CTTCTT, which binding signal is on record?
Its binding signal is 1.89.

How did the binding signal turn out when TGCAGA was run?
The binding signal was 0.882.

AGAGAA was tested. Which binding signal did it give?
The binding signal was 0.902.

How did the binding signal turn out when CGAAGT was run?
Its binding signal is 0.897.

ATCTCA was tested. Which binding signal did it give?
The binding signal was 1.51.

With ACGAAG as the sequence, how does the binding signal read?
Its binding signal is 0.831.

How did the binding signal turn out when CTGGGG was run?
The binding signal was 0.695.

Which binding signal does the source give for GCCAAC here?
The binding signal was 0.664.

For GACCGA, which binding signal is on record?
Its binding signal is 0.793.

For CCGTTC, which binding signal is on record?
Its binding signal is 1.11.

GTGTAC was tested. Which binding signal did it give?
Its binding signal is 0.627.

For GATCGA, which binding signal is on record?
The binding signal was 0.861.

Which binding signal does the source give for AGGTGT here?
Its binding signal is 0.763.

With CTAGGG as the sequence, how does the binding signal read?
The binding signal was 0.89.

Which binding signal does the source give for TGGCAT here?
The binding signal was 1.21.

With CGCACC as the sequence, how does the binding signal read?
Its binding signal is 0.63.

For CTGAGG, which binding signal is on record?
The binding signal was 0.707.

Which binding signal does the source give for AGGCAC here?
The binding signal was 0.685.

Which binding signal does the source give for CCAAGC here?
Its binding signal is 0.959.

With CGTCAT as the sequence, how does the binding signal read?
The binding signal was 0.739.

ACGGTT was tested. Which binding signal did it give?
The binding signal was 0.888.

With GGTGGT as the sequence, how does the binding signal read?
The binding signal was 0.683.

With TGGAAC as the sequence, how does the binding signal read?
The binding signal was 0.993.

With CTGGGC as the sequence, how does the binding signal read?
The binding signal was 0.849.

How did the binding signal turn out when GAATGC was run?
The binding signal was 0.817.

For AAACTG, which binding signal is on record?
The binding signal was 0.987.

CAGCAC was tested. Which binding signal did it give?
The binding signal was 0.757.

With GTGCCG as the sequence, how does the binding signal read?
The binding signal was 0.549.

CGATGC was tested. Which binding signal did it give?
Its binding signal is 0.846.

Which binding signal does the source give for GCTTAA here?
Its binding signal is 3.04.

Which binding signal does the source give for AGATGT here?
Its binding signal is 0.91.

With GATGGG as the sequence, how does the binding signal read?
Its binding signal is 0.825.

CGCAAA was tested. Which binding signal did it give?
Its binding signal is 0.909.

How did the binding signal turn out when GCATAC was run?
The binding signal was 0.713.

With TGAACG as the sequence, how does the binding signal read?
The binding signal was 0.823.

How did the binding signal turn out when GCGATC was run?
Its binding signal is 1.03.

Which binding signal does the source give for ACCGGT here?
Its binding signal is 0.657.

How did the binding signal turn out when GTGTTA was run?
The binding signal was 1.11.

For CATGCG, which binding signal is on record?
Its binding signal is 0.916.

Each sequence was assayed against T2, ELF5 (UniProt Q9UKW6-2) in the same assay as above. Conditions: 10 mM Tris-HCl pH 7.5, 50 mM NaCl, 1 mM DTT, 4% glycerol, room temperature, 30 min; GST-TFs on glutathione beads, 16-mer random dsDNA library, 0.1% …; high values mean tight binding; double strand, one strand shown; scale: fold enrichment (6-mer frequency, TF over GST control).
T2 sequence: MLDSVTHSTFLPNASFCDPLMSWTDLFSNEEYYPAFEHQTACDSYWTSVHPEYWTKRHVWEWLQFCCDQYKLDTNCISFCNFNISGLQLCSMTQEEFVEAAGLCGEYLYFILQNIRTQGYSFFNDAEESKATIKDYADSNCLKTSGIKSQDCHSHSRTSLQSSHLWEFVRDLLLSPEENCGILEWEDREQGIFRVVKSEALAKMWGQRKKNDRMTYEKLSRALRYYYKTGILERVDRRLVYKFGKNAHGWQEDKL

For ATCAAG, which binding signal is on record?
Its binding signal is 0.974.

With CTTCTT as the sequence, how does the binding signal read?
Its binding signal is 1.65.

Which binding signal does the source give for TGCAGA here?
The binding signal was 0.952.

How did the binding signal turn out when AGAGAA was run?
Its binding signal is 0.797.

CGAAGT was tested. Which binding signal did it give?
The binding signal was 0.9.

ATCTCA was tested. Which binding signal did it give?
The binding signal was 1.09.

For ACGAAG, which binding signal is on record?
Its binding signal is 0.925.

With CTGGGG as the sequence, how does the binding signal read?
Its binding signal is 0.801.

For GCCAAC, which binding signal is on record?
The binding signal was 0.93.

GACCGA was tested. Which binding signal did it give?
The binding signal was 0.773.

With CCGTTC as the sequence, how does the binding signal read?
The binding signal was 1.56.

How did the binding signal turn out when GTGTAC was run?
Its binding signal is 0.898.

Which binding signal does the source give for GATCGA here?
The binding signal was 0.732.

Which binding signal does the source give for AGGTGT here?
Its binding signal is 0.731.

CTAGGG was tested. Which binding signal did it give?
Its binding signal is 0.835.

For TGGCAT, which binding signal is on record?
Its binding signal is 1.06.

How did the binding signal turn out when CGCACC was run?
Its binding signal is 0.924.

CTGAGG was tested. Which binding signal did it give?
The binding signal was 0.813.

How did the binding signal turn out when AGGCAC was run?
Its binding signal is 0.82.

For CCAAGC, which binding signal is on record?
Its binding signal is 0.937.

How did the binding signal turn out when CGTCAT was run?
The binding signal was 0.958.

How did the binding signal turn out when ACGGTT was run?
Its binding signal is 1.05.

With GGTGGT as the sequence, how does the binding signal read?
The binding signal was 0.969.

How did the binding signal turn out when TGGAAC was run?
The binding signal was 0.989.

Which binding signal does the source give for CTGGGC here?
Its binding signal is 0.995.

How did the binding signal turn out when GAATGC was run?
Its binding signal is 1.07.

With AAACTG as the sequence, how does the binding signal read?
The binding signal was 1.1.

For CAGCAC, which binding signal is on record?
The binding signal was 0.869.

How did the binding signal turn out when GTGCCG was run?
Its binding signal is 0.839.

With CGATGC as the sequence, how does the binding signal read?
The binding signal was 0.957.

Which binding signal does the source give for GCTTAA here?
The binding signal was 0.983.

With AGATGT as the sequence, how does the binding signal read?
The binding signal was 0.955.

Which binding signal does the source give for GATGGG here?
The binding signal was 0.982.

For CGCAAA, which binding signal is on record?
Its binding signal is 0.968.

With GCATAC as the sequence, how does the binding signal read?
The binding signal was 0.923.

TGAACG was tested. Which binding signal did it give?
Its binding signal is 0.886.

With GCGATC as the sequence, how does the binding signal read?
Its binding signal is 0.919.

For ACCGGT, which binding signal is on record?
Its binding signal is 0.881.

For GTGTTA, which binding signal is on record?
Its binding signal is 0.901.

Which binding signal does the source give for CATGCG here?
Its binding signal is 0.985.
